This passage reports binding results from patent publication US20260116970A1 (NMI NATURWISSENSCHAFTLICHES UND MEDIZINISCHES INSTITUT AN …, published 2026).

The chains behind the UniProt entries cited, without tags or fusion partners. Where a name states a change or a piece, a line headed by the entry shows the natural chain unless it says otherwise. A line that says so, or that is headed by a name, gives the form on record, which may keep a tag or linker. Residues count along the entry.
UniProt Q9P1W8, residues 29-387: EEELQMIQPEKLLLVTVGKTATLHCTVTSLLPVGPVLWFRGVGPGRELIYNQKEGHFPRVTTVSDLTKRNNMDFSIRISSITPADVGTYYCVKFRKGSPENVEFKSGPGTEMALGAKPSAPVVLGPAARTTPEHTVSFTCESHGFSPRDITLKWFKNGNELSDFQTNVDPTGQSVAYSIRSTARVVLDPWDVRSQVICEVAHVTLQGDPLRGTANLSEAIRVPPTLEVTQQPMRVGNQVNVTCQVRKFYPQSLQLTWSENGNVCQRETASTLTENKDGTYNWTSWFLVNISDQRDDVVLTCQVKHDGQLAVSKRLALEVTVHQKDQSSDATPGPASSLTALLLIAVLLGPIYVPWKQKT
full-length hSIRPα on cells (P78324, residues 31-504): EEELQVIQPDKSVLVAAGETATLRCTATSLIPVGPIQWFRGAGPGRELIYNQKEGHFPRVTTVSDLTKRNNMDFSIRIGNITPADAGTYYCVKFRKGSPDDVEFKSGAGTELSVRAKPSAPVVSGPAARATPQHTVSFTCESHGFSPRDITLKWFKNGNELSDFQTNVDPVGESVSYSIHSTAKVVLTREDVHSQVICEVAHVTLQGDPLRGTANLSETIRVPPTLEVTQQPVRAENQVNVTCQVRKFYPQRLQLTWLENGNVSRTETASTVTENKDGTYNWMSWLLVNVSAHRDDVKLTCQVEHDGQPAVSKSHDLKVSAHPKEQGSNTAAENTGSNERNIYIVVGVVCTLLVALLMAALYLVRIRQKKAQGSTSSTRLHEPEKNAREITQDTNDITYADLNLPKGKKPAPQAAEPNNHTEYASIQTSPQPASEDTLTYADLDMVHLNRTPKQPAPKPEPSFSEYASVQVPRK
hSIRPα-V2 on U2OS cells (P78324, form named): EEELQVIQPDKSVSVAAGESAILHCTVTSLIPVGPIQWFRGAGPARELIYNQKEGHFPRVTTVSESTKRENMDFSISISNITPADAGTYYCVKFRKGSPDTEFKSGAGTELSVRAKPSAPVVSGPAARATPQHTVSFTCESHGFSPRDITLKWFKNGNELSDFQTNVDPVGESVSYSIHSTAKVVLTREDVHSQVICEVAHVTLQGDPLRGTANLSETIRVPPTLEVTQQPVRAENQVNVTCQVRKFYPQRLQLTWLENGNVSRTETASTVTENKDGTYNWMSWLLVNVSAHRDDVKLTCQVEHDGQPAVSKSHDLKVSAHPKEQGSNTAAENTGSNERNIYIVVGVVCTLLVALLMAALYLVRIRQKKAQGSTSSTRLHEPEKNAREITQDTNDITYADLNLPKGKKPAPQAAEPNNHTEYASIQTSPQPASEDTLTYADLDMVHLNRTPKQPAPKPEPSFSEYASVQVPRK
UniProt O00241, residues 30-398: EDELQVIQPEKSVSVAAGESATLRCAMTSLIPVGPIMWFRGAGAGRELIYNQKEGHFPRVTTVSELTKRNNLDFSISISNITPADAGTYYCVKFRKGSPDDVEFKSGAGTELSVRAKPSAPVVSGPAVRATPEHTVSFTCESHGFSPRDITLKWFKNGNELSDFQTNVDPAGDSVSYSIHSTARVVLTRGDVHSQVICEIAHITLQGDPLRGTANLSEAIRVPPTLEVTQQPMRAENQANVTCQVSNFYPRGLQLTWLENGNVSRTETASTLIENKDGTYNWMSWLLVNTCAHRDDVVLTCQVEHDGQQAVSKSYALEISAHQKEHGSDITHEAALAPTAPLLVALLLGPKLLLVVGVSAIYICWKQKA

These are yes or no findings as the source states them, for the method shown. Some entries that bind do so weakly or less than the wild type.

B1: hSIRPα nanobody S8 (VHH)
VHH: QVQLVESGGGLVQPGGSLRLSCADSEFRLDEYATGWFRQAPGKEREGVACISRSGSNTKYTDSVKGRFTISRDNAKKTVYLQMNSLKPEDTAVYYCAADLTSHYLSCSSYTDYNSWGQGTQVTVSS
notes: Purified by IMAC; the tag is not described; also called Nb S8
B2: hSIRPα nanobody S44 (VHH)
VHH: QVQLQESGGGLVQPGGSLRLACAASGFTFSSYDMSWVRQAPGKGLEWVSDIKSGGGRTYYADSVKGRFTISRDNAKNTVYLQMNSLKPEDTAVYYCGSLDNSGAYTGGGQGSQVTVSS
notes: also called Nb S44
B3: hSIRPα nanobody S12 (VHH)
VHH: QVQLVESGGGLVQPGGSLRLSCLVSGFSSSYYAIGWFRQAPGKEREGVSCITRSGDTTNYADSVKGRFTISRDDARNTVYLQMNSLKTEDTAVYSCALWAWAGSGRLRCTASEYGHWGQGTQVTVSS
notes: also called Nb S12
B4: hSIRPα nanobody S7 (VHH)
VHH: HVQLVESGGGLVQVGDSLRLSCAPSGRTFRAYAMAWFRQAPGKEREFVAAIRWIGGTPSYKDSVKGRFTISRDNARNTFYLQMNSLEPQDTGVYYCAAEETQKGSGLGHDGRHYDYWGQGTPVTVSS
notes: Expressed from pHEN6 in E. coli and purified by IMAC; the tag is not described; also called Nb S7
B5: hSIRPα nanobody S45 (VHH)
VHH: HVQLVESGGGLVQPGGSLRLSCAARGFSFRDSAMSWARQAPGKGLEWVGAIYSDGSTVYEKSVKGRFTISRDNAKNTMYLQMHSLKPEDSARYYCAPKGVVADEGDYSGQGTLVTVSS
notes: also called Nb S45
B6: hSIRPα nanobody S36 (VHH)
VHH: EVQLVESGGGLVQPGGSLRLSCAASGFTLDYYAIGWFRQVPGKEREGVSCISSDGGGNTYYADSVKGRFTISRDNAKNTVYLQMNSLKPEDSAVYSCAAGPTYYSGSYCRDPHSDYDYWGQGTQVTVSS
notes: also called Nb S36; hSIRPα-S36 Nb
B7: hSIRPα nanobody S33 (VHH)
VHH: EVQLVESGGGLVQPGGSLRLSCTTSGFTLDYYSVGWFRQAPGKEREGVSCITASGSSTNYANSVKGRFTISRDKVKNTVYLQMSSLKPEDTAVYYCAAEPCTVVAGILQAPTSDFGSWGQGTQVTVSS
notes: also called Nb S33

The target in one test is T1, hSIRPγ on U2OS cells (human, UniProt Q9P1W8 29-387).
T1 construct: whole, on cells; also called SIRP gamma
The experiment in a line: immunofluorescence on U2OS cells transiently expressing hSIRPγ. As to the method: (§1) Stably expressing hSIRPα U2OS cells, U2OS wt or U2OS cells transiently expressing individual hSIRPα domains (D1-3) with SPOT-Tag or different hSIRP family members (hSIRPα-V1, hSIRPα-V2, hSIRPβ1, hSIRPγ, murine SIRPα) were plated at ˜10,000 cells per well of a μClear 96-well plate (Greiner Bio One, cat. #655090) and cultivated overnight at standard conditions. For imaging, medium was replaced by live-cell visualization medium DMEMgfp-2 (Evrogen, cat. #MC102) supplemented with 10% FBS, 2 mM L-glutamine, 2 μg/ml Hoechst33258 (Sigma Aldrich) for nuclear staining. 1-100 nM of unlabeled hSIRPα Nbs in combination with 2.5 μg/ml anti-VHH secondary Cy5 AffiniPure Goat Anti-Alpaca IgG (Jackson Immuno Research) were added and incubated for 1 h at 37° C. For control staining hSIRPα Ab PE (SE5A5, BioLegend) and bivSPOT-Nb labeled with AlexaFluor647 (AF647) were used. Images were acquired with a MetaXpress Micro XL system (Molecular Devices) at 20× or 40× magnification.
(§2) Moreover, with hSIRPαV1 and hSIRPαV2, two isoforms are expressed either homozygously (v1/v1 or v2/v2) or heterozygously (v1/v2), and the frequency of distribution varies between human subpopulations (Sim et al., “Discovery of high affinity, pan-allelic, and pan-mammalian reactive antibodies against the myeloid checkpoint receptor SIRPα”, MAbs. Taylor & Francis (2019) pp. 1036-1052). To address the question of specificity, hSIRPβ1, hSIRPγ or the hSIRPα polymorphisms hSIRPα-V1 and hSIRPα-V2 were transiently expressed in U2OS cells and their recognition was analyzed by the selected hSIRPα Nbs by immunofluorescence staining. In addition, murine SIRPα was included to evaluate potential cross-reactivity between human and mouse SIRPα variants (FIG. 3A; data not shown).
For B1, the binding entry is listed as “binds”.

Take B2: the binding result is “binds”.

Consider B3, for which the binding entry is “binds”.

The target in a further test is full-length hSIRPα on cells (human) (UniProt P78324). The experiment in a line: live-cell immunofluorescence, U2OS cells stably expressing full-length hSIRPα.
As to B4, the binding entry is “binds”.

With B5, the binding result was “binds”.

Take B1: the binding entry is “binds”.

For B2, the binding result is “binds”.

As for B6, the binding entry was “binds”.

For B7, the binding entry is “binds”.

Turning to B3, the binding result is “binds”.

The target of the next test is T2, hSIRPβ1 on U2OS cells (human, UniProt O00241 30-398).
T2 construct: whole, on cells; also called SIRP beta
As to the kind of experiment: immunofluorescence on U2OS cells transiently expressing hSIRPβ1. As to the method:
as §1, §2
Regarding B4, the binding result is “binds”.

With B5, the binding result is “binds”.

As for B1, the binding entry was “binds”.

For the molecule B2, the binding entry was “binds”.

For the molecule B7, the binding result is recorded as “binds”.

On to B3, for which the binding entry is recorded as “binds”.

Another test concerns the target full-length hSIRPα on cells (human) (UniProt P78324). As to the kind of experiment: live-cell immunofluorescence on U2OS cells stably expressing hSIRPα, detection with anti-VHH-Cy5, U2OS-wt as control.
Take B4: the binding entry is given as “binds”.

B5: the binding result is “binds”.

Consider B1, for which the binding entry was “binds”.

For the molecule B2, the binding entry is “binds”.

As for B6, the binding entry is reported as “binds”.

Consider B7, for which the binding entry was “binds”.

Regarding B3, the binding result is reported as “binds”.

For a further test the target is unchanged. The experiment in a line: flow cytometry, AF647-labelled Nb (200 nM) on CD14+ human PBMCs of three donors. (In flow cytometry, cells or beads pass a laser one at a time.)
B5: the binding result is recorded as “binds”.

For B1, the binding result is “binds”.

Take B2: the binding entry is on record as “binds”.

For B6, the binding entry is given as “binds”.

B7: the binding result is given as “binds”.

B3: the binding entry is listed as “binds”.

The next test has as its target T3, hSIRPα-V2 on U2OS cells (human, UniProt P78324 31-504).
T3 construct: whole, on cells
As to the kind of experiment: immunofluorescence on U2OS cells transiently expressing hSIRPα-V2.
As to B4, the binding result is reported as “binds”.

As for B5, the binding entry is on record as “binds”.

Take B1: the binding result is “binds”.

As to B7, the binding entry is “binds”.
